# Source: paper doi:10.1101/2023.01.12.523789
# Amino acid sequences for entries named in this document (tags omitted). A change or cut given only in a name is not applied to a line headed by its entry. Chains listed by the source or under a name are the forms on record and can include a tag or linker.
# UniProt Q15286: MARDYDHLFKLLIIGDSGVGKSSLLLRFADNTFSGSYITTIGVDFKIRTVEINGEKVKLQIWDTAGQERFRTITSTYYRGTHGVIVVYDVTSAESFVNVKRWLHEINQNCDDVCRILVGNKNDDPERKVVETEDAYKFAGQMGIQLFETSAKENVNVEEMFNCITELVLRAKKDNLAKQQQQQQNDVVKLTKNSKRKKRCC
# GFP-Rab35 QL (Q15286, form named): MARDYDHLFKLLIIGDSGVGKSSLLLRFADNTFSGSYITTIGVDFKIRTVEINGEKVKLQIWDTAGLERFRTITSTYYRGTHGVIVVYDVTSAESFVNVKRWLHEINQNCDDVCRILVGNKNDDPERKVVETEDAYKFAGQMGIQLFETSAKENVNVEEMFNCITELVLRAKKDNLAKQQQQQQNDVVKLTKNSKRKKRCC
# No constants are given. Whether binding was seen depends on the method and setting. Binding seen in cells or lysates may run through a third protein. Some entries that bind do so weakly or less than the wild type. Sequences can lack the tags named with a protein.
# Target: T1, Flag-DENND2B FL (UniProt P78524)
# T1 sequence: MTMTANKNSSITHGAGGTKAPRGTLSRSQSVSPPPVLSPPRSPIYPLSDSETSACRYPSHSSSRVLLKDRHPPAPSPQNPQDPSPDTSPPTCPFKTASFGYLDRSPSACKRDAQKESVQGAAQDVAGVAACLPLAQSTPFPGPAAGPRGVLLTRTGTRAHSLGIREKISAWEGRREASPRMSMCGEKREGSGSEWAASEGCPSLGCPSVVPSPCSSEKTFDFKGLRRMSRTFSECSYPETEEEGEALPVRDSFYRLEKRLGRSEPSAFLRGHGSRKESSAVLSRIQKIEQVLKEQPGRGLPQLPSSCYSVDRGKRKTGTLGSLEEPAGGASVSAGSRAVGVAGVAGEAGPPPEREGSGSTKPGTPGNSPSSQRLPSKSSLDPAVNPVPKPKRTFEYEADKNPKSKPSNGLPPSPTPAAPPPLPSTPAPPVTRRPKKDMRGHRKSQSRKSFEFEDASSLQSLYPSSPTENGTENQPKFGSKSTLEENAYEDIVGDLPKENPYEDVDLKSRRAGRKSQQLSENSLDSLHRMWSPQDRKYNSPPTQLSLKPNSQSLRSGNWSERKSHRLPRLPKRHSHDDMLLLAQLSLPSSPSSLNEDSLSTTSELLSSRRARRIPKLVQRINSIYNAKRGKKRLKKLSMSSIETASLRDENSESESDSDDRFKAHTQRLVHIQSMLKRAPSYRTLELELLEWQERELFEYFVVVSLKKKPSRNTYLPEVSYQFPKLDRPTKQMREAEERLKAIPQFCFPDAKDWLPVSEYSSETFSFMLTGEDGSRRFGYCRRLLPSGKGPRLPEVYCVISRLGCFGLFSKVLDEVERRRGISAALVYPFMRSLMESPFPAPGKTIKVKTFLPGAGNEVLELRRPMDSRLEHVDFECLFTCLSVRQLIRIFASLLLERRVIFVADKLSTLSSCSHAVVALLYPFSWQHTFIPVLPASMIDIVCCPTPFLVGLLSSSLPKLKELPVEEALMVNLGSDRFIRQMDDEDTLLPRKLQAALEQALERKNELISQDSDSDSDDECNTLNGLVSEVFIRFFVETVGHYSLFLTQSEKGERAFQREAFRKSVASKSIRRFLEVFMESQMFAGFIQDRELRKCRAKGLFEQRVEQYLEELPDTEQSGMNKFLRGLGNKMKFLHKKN
# Experiment: co-IP
substance,measurement,value
GFP-Rab35 QL (from UniProt Q15286 1-201),binding,binds
